Results: paper PMC9458440, “Cryo-EM structure of the Smc5/6 holo-complex” (Nucleic Acids Research, 2022)
These are yes or no findings as the source states them, for the method shown.

T1: Smc6 (Walker B mutant E1048Q), subunit of the S. cerevisiae Smc5/6 holo-complex (S. cerevisiae), Q12749
T1 chain: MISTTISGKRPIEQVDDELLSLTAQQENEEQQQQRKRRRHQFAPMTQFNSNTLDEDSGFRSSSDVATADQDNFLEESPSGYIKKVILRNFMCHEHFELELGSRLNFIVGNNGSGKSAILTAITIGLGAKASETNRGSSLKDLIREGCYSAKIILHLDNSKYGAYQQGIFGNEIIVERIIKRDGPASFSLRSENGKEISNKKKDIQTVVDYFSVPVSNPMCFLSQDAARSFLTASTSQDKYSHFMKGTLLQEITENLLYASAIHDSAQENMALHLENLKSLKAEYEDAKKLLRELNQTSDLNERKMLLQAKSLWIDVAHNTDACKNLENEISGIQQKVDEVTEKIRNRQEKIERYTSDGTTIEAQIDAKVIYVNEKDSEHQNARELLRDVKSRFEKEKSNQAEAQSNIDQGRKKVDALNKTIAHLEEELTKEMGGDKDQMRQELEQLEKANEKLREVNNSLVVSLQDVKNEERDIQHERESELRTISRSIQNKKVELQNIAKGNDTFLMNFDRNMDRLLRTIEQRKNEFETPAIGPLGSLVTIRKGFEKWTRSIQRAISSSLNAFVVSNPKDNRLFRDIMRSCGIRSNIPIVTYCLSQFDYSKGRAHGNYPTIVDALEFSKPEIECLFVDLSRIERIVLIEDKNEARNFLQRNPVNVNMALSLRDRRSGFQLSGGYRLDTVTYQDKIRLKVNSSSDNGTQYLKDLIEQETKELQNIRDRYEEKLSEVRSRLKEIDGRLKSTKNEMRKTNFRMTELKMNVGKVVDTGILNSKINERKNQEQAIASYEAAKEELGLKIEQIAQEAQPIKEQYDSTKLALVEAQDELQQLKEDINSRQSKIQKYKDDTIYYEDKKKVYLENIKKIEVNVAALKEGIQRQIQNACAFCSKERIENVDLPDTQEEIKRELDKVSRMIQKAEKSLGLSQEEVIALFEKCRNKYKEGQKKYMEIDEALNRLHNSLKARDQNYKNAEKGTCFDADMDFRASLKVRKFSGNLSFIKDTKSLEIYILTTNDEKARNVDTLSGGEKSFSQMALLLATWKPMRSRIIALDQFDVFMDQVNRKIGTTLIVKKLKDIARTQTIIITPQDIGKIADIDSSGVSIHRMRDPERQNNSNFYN


Molecular target: T1, Smc6 (Walker B mutant E1048Q), subunit …
Experiment: cryo-EM structure; BS3-crosslinked six-subunit holo-complex, apo / non-liganded; fractions from Superose 6 diluted to 20 mM HEPES.NaOH pH 7.5, 50 mM NaCl, 0.5 mM TCEP, 0.1 mg/ml; maps at 10.8 Å (holo-complex), 8.53 Å (hinge/arm) and 6.5 Å (head-only); pseudo-atomic model built from homology and AlphaFold models; both purified
Conditions: remark: other sources report otherwise

| binding | Binder |
| --- | --- |
| no binding | Nse1, subunit of the S. cerevisiae Smc5/6 holo-complex (natural protein, Nse1, Saccharomyces cerevisiae; the model holds amino acids 11-336; also called KITE subunit; source: recombinant, expressed in insect cells, purified as holo-complex (Superose 6 SEC), BS3-crosslinked) MEVHEEQVSAPVTGDATAKYLLQYILSARGICHENALILALMRLETDASTLNTEWSIQQWVDKLNDYINAINVKLNLLGYKIIRINHGIGRNAVTLKAKQNFESFEDNTAIRAHNNDYAVLQSIVLPESNRFFVYVNLASTEETKLATRFNQNEIEFMKWAIEQFMISGETIVEGPALETSIIVKEVNRILVAATGDSNLAKWRKFSTFTVGSTNLFQFQELTATDIEDLLLRLCELKWFYRTQEGKFGIDLRCIAELEEYLTSMYNLNTCQNCHKLAIQGVRCGNESCREENEETGENSLSQIWHVDCFKHYITHVSKNCDRCGSSLITEGVYVI |
| no binding | Nse3, subunit of the S. cerevisiae Smc5/6 holo-complex (natural protein, Nse3, Saccharomyces cerevisiae; the model holds amino acids 9-99, 114-152, 173-303; also called KITE subunit; source: recombinant, expressed in insect cells, purified as holo-complex (Superose 6 SEC), BS3-crosslinked) MSSIDNDSDVDLTEDLAVAKIVKENPVARKMVRYILSRGESQNSIITRNKLQSVIHEAAREENIAKPSFSKMFMDINAILYNVYGFELQGLPSKNNMNAGGNGSNSNTNKSMPEPLGHRAQKFILLNNVPHSKNFDDFKILQSAHTYEELIVTGEYIGDDIASGTSNTLESKLSTDRDLVYKGVLSVILCIVFFSKNNILHQELIKFLETFGIPSDGSKIAILNITIEDLIKSLEKREYIVRLEEKSDTDGEVISYRIGRRTQAELGLESLEKLVQEIMGLEKEQTKSLHDDIIKSIGDSYSI |
